Measurements: PubChem BioAssay AID328 (DTP/NCI, 2004)
The list is a part of this screen's results and no random one: it gathers tests that were run many times, whatever their T/C, doses with no T/C, and many T/C values between a quarter and a half above the control. Further doses and runs are listed elsewhere. T/C gives the treated animals as a percentage of the vehicle group. Some entries give survivors of the animals treated and no T/C: the source holds a T/C of zero for them, seemingly a mark for toxic or unscored doses. Some doses without a T/C left all or most animals alive at the check, yet need not have been tolerated: survival well below the control is almost never listed, so the zero probably covers shortened survival too. Counts of survivors are from the toxicity check (mostly the fifth day) where no day follows; animals may have died later. Schedule codes are those of the source, read here as Q, the interval in days (D) or hours (H), X, the number of doses. Some entries were tested several times; the values are given in rising order. Where survival is the endpoint, the PubChem record calls one and a half times the control and up active, and a quarter to a half above the control has no call in these data; cut-offs in other NCI protocols can differ. Marks such as (2×) say how often a value occurs here. Some T/C values carry the count of animals alive at the toxicity check (mostly the fifth day); where none is given, no animal had died by that day.

System: BDF1 mice, P388 leukemia ip, median survival T/C
Test: NCI In Vivo Anticancer Drug Screen. Data for tumor model P388 Leukemia (intraperitoneal) in B6D2F1 (BDF1) mice
Conditions: T/C endpoint: median survival time, higher T/C = longer survival
Method in brief: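 Vehicle-dosed animals serve as the reference; survival of compound-dosed, tumour-implanted mice is divided by it.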

[1] = dose: 12.5 mg/kg/injection, schedule: Q01DX010 (ip), vehicle: carboxymethylcellulose (CMC)
[2] = dose: 50.0 mg/kg/injection, schedule: Q01DX010 (ip), vehicle: carboxymethylcellulose (CMC)

COC(=O)C[C@](O)(CCC(C)(C)O)C(=O)O[C@@H]1C(OC)=C[C@]23CCCN2CCc2cc4c(cc2[C@H]13)OCO4
T/C (dose: 0.2 mg/kg/injection, schedule: Q01DX010 (ip), vehicle: saline): 126 % of control | T/C (dose: 0.25 mg/kg/injection, schedule: Q03HX008 (ip), vehicle: saline): 127 % of control | T/C (dose: 0.5 mg/kg/injection, schedule: Q01DX009 (ip), vehicle: saline, evaluated on day 30): 175 and 240 % of control | T/C (dose: 0.5 mg/kg/injection, schedule: Q01DX009 (ip), vehicle: saline, evaluated on day 60): 200 and 209 % of control | T/C (dose: 0.5 mg/kg/injection, schedule: Q01DX009 (oral), vehicle: saline): 130 % of control | T/C (dose: 0.5 mg/kg/injection, schedule: Q01DX009 (sc), vehicle: saline): 135 % of control | T/C (dose: 0.5 mg/kg/injection, schedule: Q01DX010 (ip), vehicle: saline): 142 % of control | T/C (dose: 0.5 mg/kg/injection, schedule: Q01DX010 (sc), vehicle: saline): 140 % of control | T/C (dose: 1.0 mg/kg/injection, schedule: Q01DX006 (iv), vehicle: saline): 145 % of control | T/C (dose: 1.0 mg/kg/injection, schedule: Q01DX009 (ip), vehicle: saline, evaluated on day 30): 204 and 255 % of control | T/C (dose: 1.0 mg/kg/injection, schedule: Q01DX009 (ip), vehicle: saline, evaluated on day 60): 240 % of control (2×) | T/C (dose: 1.0 mg/kg/injection, schedule: Q01DX009 (oral), vehicle: saline): 140 % of control [9 of 10 alive] | T/C (dose: 1.0 mg/kg/injection, schedule: Q01DX010 (ip), vehicle: saline): 147 % of control | T/C (dose: 1.0 mg/kg/injection, schedule: Q01DX010 (sc), vehicle: saline): 135 % of control | T/C (dose: 1.0 mg/kg/injection, schedule: Q03HX008 (ip), vehicle: saline): 145 % of control [7 of 10 alive] | T/C (dose: 2.0 mg/kg/injection, schedule: Q01DX001 (ip), vehicle: saline): 131 % of control | T/C (dose: 2.0 mg/kg/injection, schedule: Q01DX009 (ip), vehicle: saline, evaluated on day 30): 216 and 280 % of control [9 of 10 alive] | T/C (dose: 2.0 mg/kg/injection, schedule: Q01DX009 (ip), vehicle: saline, evaluated on day 60): 227 and 304 % of control | survivor count (dose: 2.0 mg/kg/injection, schedule: Q01DX009 (ip), vehicle: water): 4 of 6 | T/C (dose: 2.0 mg/kg/injection, schedule: Q01DX010 (ip), vehicle: saline): 147 % of control | survivor count (dose: 2.0 mg/kg/injection, schedule: Q03HX008 (ip), vehicle: saline): 0 of 10 | survivor count (dose: 2.0 mg/kg/injection, schedule: Q03HX016 (ip), vehicle: saline): 0 of 10 | survivor count (dose: 2.0 mg/kg/injection, schedule: Q03HX024 (ip), vehicle: saline): 0 of 10 | T/C (dose: 2.0 mg/kg/injection, schedule: Q08DX002 (ip), vehicle: saline): 131 % of control | survivor count (dose: 2.9 mg/kg/injection, schedule: Q01DX009 (ip), vehicle: saline): 6 of 6 | T/C (dose: 4.0 mg/kg/injection, schedule: Q01DX001 (ip), vehicle: saline): 127 % of control | survivor count (dose: 4.0 mg/kg/injection, schedule: Q01DX006 (iv), vehicle: saline): 6 of 6 | survivor count (dose: 4.0 mg/kg/injection, schedule: Q01DX009 (ip), vehicle: saline): 8 of 10 and 10 of 10 | survivor count (dose: 4.0 mg/kg/injection, schedule: Q01DX009 (ip), vehicle: water): 1 of 6 and 2 of 6 | T/C (dose: 4.0 mg/kg/injection, schedule: Q01DX009 (oral), vehicle: saline): 135 % of control [8 of 10 alive] | survivor count (dose: 4.0 mg/kg/injection, schedule: Q01DX009 (sc), vehicle: saline): 9 of 10 | survivor count (dose: 4.0 mg/kg/injection, schedule: Q01DX010 (ip), vehicle: saline): 2 of 6 | survivor count (dose: 4.0 mg/kg/injection, schedule: Q01DX010 (oral), vehicle: saline): 6 of 6 | T/C (dose: 4.0 mg/kg/injection, schedule: Q04DX003 (ip), vehicle: saline): 145 % of control | T/C (dose: 4.0 mg/kg/injection, schedule: Q08DX002 (ip), vehicle: saline): 131 % of control | survivor count (dose: 4.5 mg/kg/injection, schedule: Q01DX009 (ip), vehicle: saline): 0 of 6 | survivor count (dose: 6.7 mg/kg/injection, schedule: Q01DX009 (ip), vehicle: saline): 0 of 6 | survivor count (dose: 8.0 mg/kg/injection, schedule: Q01DX006 (iv), vehicle: saline): 4 of 6 | survivor count (dose: 8.0 mg/kg/injection, schedule: Q01DX009 (oral), vehicle: saline): 0 of 10 | survivor count (dose: 8.0 mg/kg/injection, schedule: Q01DX009 (sc), vehicle: saline): 1 of 10 | survivor count (dose: 8.0 mg/kg/injection, schedule: Q01DX010 (ip), vehicle: saline): 2 of 6 | survivor count (dose: 8.0 mg/kg/injection, schedule: Q01DX010 (sc), vehicle: saline): 6 of 6 | survivor count (dose: 16.0 mg/kg/injection, schedule: Q01DX001 (ip), vehicle: saline): 6 of 10 | survivor count (dose: 16.0 mg/kg/injection, schedule: Q01DX010 (oral), vehicle: saline): 1 of 6 | survivor count (dose: 16.0 mg/kg/injection, schedule: Q04DX003 (ip), vehicle: saline): 6 of 10 | survivor count (dose: 16.0 mg/kg/injection, schedule: Q08DX002 (ip), vehicle: saline): 4 of 10

CC(=O)c1ccccc1OS(=O)(=O)c1ccc([N+](=O)[O-])cc1
survivor count (dose: 50.0 mg/kg/injection, schedule: Q01DX009 (ip), vehicle: saline sonified): 6 of 6

N=C(N)SC1c2cc(Cl)ccc2-c2c(Cl)cc(Cl)cc21 (stereo not given)
survivor count (dose: 3.1 mg/kg/injection, schedule: Q01DX010 (ip), vehicle: carboxymethylcellulose (CMC)): 6 of 6 | survivor count (dose: 6.2 mg/kg/injection, schedule: Q01DX010 (ip), vehicle: carboxymethylcellulose (CMC)): 6 of 6 | T/C [1]: 135 % of control | survivor count [1]: 6 of 6 | T/C (dose: 25.0 mg/kg/injection, schedule: Q01DX010 (ip), vehicle: carboxymethylcellulose (CMC)): 145 % of control | T/C (dose: 50.0 mg/kg/injection, schedule: Q01DX009 (ip), vehicle: Klucel (hydroxypropylcellulose) (HPC)): 130 % of control | T/C [2]: 135 % of control | T/C (dose: 100.0 mg/kg/injection, schedule: Q01DX009 (ip), vehicle: Klucel (hydroxypropylcellulose) (HPC)): 130 % of control

Oc1ccccc1C=NCCN1CC1.Oc1ccccc1C=NCCN1CC1.[Cu]
T/C (dose: 12.5 mg/kg/injection, schedule: Q01DX001 (ip), vehicle: saline sonified): 136 % of control

O=c1[nH]cnc2c(Cl)c(C(Cl)(Cl)Cl)nn12 (tested in a mixture with another compound)
survivor count (dose: 50.0 mg/kg/injection, schedule: Q01DX009 (ip), vehicle: saline with Tween-80): 6 of 6

CC(C)(C)CC(=O)OCCC[N+](C)(C)[O-]
survivor count (dose: 400.0 mg/kg/injection, schedule: Q01DX005 (ip), vehicle: water): 1 of 4 | survivor count (dose: 500.0 mg/kg/injection, schedule: Q01DX005 (ip), vehicle: water): 1 of 4

O=[N+]([O-])c1ccc(O)c(C2N(Cc3ccc(N(CCCl)CCCl)cc3)CCCN2Cc2ccc(N(CCCl)CCCl)cc2)c1
T/C [2]: 125 % of control
